PubChem BioAssay AID504764 | Drosophila RNAi Screening Center | 2011
In all, the deposit lists about 22,000 reagents; shown is an unselected part of those that have a named target and a result. In the full data, 403 (1.9%) were called active. 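Unnormalised raw counts per well; ratio z-scores behind the hit calls and whether each hit raises or lowers signal are not deposited.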 A plus sign joins genes that one reagent is predicted to hit. Not stated in the record: the amount of reagent.

Assay: 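Genes whose knock-down alters Notch-dependent transcription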 (primary screen)
System: Drosophila Kc167 cells
Knock-down reagent: long dsRNA against Drosophila genes
Duration: about 5 days (4 days dsRNA, then 24 h after transfection)
Conditions: transfection of constitutively active membrane-tethered Notch lacking the extracellular domain, read 24 h later
Measured: 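Light from a Notch-responsive E(spl)m3 luciferase reporter under active Notch, with control-promoter and no-Notch reporter wells to normalise; raw counts from paired wells a and b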
Scale: induced reporter light, run 1, well a and induced reporter light, run 1, well b: higher = more light from the Notch target reporter with active Notch; control promoter light, run 1, well a and control promoter light, run 1, well b: higher = more light from the viral control promoter (cell number, transfection, viability); uninduced reporter light, run 1, well a: higher = more light from the Notch target reporter without active Notch
Rule for the call: 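Hit if the duplicate-averaged log2 ratio of induced to control-promoter light gives a plate-wise z beyond ±2, or induced to uninduced beyond ±1.8; weak-control or discordant-duplicate wells dropped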
Meaning of the calls: active = modifier hit (raised or lowered Notch signal); inactive = not a hit

The opening 3 records, to show the layout:
Mitf [DRSC17212]: induced reporter light, run 1, well a = 72530; induced reporter light, run 1, well b = 75145; control promoter light, run 1, well a = 96440; control promoter light, run 1, well b = 1.09e5; uninduced reporter light, run 1, well a = 5535; Outcome = inactive
Mitf [DRSC21056]: induced reporter light, run 1, well a = 65340; induced reporter light, run 1, well b = 58450; control promoter light, run 1, well a = 80980; control promoter light, run 1, well b = 88590; uninduced reporter light, run 1, well a = 6805; Outcome = inactive
ergic53 [DRSC11389]: induced reporter light, run 1, well a = 2.28e5; induced reporter light, run 1, well b = 2.61e5; control promoter light, run 1, well a = 2.20e5; control promoter light, run 1, well b = 1.90e5; uninduced reporter light, run 1, well a = 11470; Outcome = inactive

Results, repeating the preview:
Mitf [DRSC17212]: induced reporter light, run 1, well a = 72530; induced reporter light, run 1, well b = 75145; control promoter light, run 1, well a = 96440; control promoter light, run 1, well b = 1.09e5; uninduced reporter light, run 1, well a = 5535; Outcome = inactive
Mitf [DRSC21056]: induced reporter light, run 1, well a = 65340; induced reporter light, run 1, well b = 58450; control promoter light, run 1, well a = 80980; control promoter light, run 1, well b = 88590; uninduced reporter light, run 1, well a = 6805; Outcome = inactive
ergic53 [DRSC11389]: induced reporter light, run 1, well a = 2.28e5; induced reporter light, run 1, well b = 2.61e5; control promoter light, run 1, well a = 2.20e5; control promoter light, run 1, well b = 1.90e5; uninduced reporter light, run 1, well a = 11470; Outcome = inactive
AP-1-2beta (Adaptor Protein complex 1/2, beta subunit) [DRSC19336]: induced reporter light, run 1, well a = 48930; induced reporter light, run 1, well b = 61575; control promoter light, run 1, well a = 71525; control promoter light, run 1, well b = 86810; uninduced reporter light, run 1, well a = 5192; Outcome = inactive
CG14312 [DRSC14791]: induced reporter light, run 1, well a = 2.37e5; induced reporter light, run 1, well b = 1.55e5; control promoter light, run 1, well a = 2.09e5; control promoter light, run 1, well b = 2.14e5; uninduced reporter light, run 1, well a = 12050; Outcome = inactive
Cyp6d2 (Cytochrome P450 6d2) [DRSC04606]: induced reporter light, run 1, well a = 1.90e5; induced reporter light, run 1, well b = 1.52e5; control promoter light, run 1, well a = 1.33e5; control promoter light, run 1, well b = 1.40e5; uninduced reporter light, run 1, well a = 12245; Outcome = inactive
Snm1 [DRSC12130]: induced reporter light, run 1, well a = 1.14e5; induced reporter light, run 1, well b = 1.59e5; control promoter light, run 1, well a = 89860; control promoter light, run 1, well b = 93390; uninduced reporter light, run 1, well a = 11110; Outcome = inactive
Ipk1 (Inositol phosphate kinase 1) [DRSC04235]: induced reporter light, run 1, well a = 2.20e5; induced reporter light, run 1, well b = 2.42e5; control promoter light, run 1, well a = 1.65e5; control promoter light, run 1, well b = 1.63e5; uninduced reporter light, run 1, well a = 12435; Outcome = inactive
Ipk1 (Inositol phosphate kinase 1) [DRSC04236]: induced reporter light, run 1, well a = 49410; induced reporter light, run 1, well b = 32180; control promoter light, run 1, well a = 26200; control promoter light, run 1, well b = 27965; uninduced reporter light, run 1, well a = 2010; Outcome = inactive
Ipk1 (Inositol phosphate kinase 1) [DRSC04237]: induced reporter light, run 1, well a = 34965; induced reporter light, run 1, well b = 35755; control promoter light, run 1, well a = 32065; control promoter light, run 1, well b = 32990; uninduced reporter light, run 1, well a = 2120; Outcome = inactive
CG1418 [DRSC06447]: induced reporter light, run 1, well a = 1.91e5; induced reporter light, run 1, well b = 1.90e5; control promoter light, run 1, well a = 2.99e5; control promoter light, run 1, well b = 2.54e5; uninduced reporter light, run 1, well a = 17455; Outcome = inactive
Gbeta5 (G protein beta subunit 5) [DRSC17754]: induced reporter light, run 1, well a = 1.24e5; induced reporter light, run 1, well b = 1.48e5; control promoter light, run 1, well a = 2.41e5; control promoter light, run 1, well b = 2.93e5; uninduced reporter light, run 1, well a = 11785; Outcome = inactive
CG33110 [DRSC14694]: induced reporter light, run 1, well a = 10495; induced reporter light, run 1, well b = 8420; control promoter light, run 1, well a = 11375; control promoter light, run 1, well b = 11220; uninduced reporter light, run 1, well a = 3340; Outcome = inactive
CG33110 [DRSC16137]: induced reporter light, run 1, well a = 2.69e5; induced reporter light, run 1, well b = 2.66e5; control promoter light, run 1, well a = 2.95e5; control promoter light, run 1, well b = 2.48e5; uninduced reporter light, run 1, well a = 20470; Outcome = inactive
CG43737 [DRSC19609]: induced reporter light, run 1, well a = 89785; induced reporter light, run 1, well b = 1.06e5; control promoter light, run 1, well a = 1.27e5; control promoter light, run 1, well b = 1.04e5; uninduced reporter light, run 1, well a = 15745; Outcome = inactive
Clamp (Chromatin-linked adaptor for MSL proteins) [DRSC03718]: induced reporter light, run 1, well a = 1.03e5; induced reporter light, run 1, well b = 1.37e5; control promoter light, run 1, well a = 74515; control promoter light, run 1, well b = 87625; uninduced reporter light, run 1, well a = 7090; Outcome = inactive
amon (amontillado) [DRSC13784]: induced reporter light, run 1, well a = 1.75e5; induced reporter light, run 1, well b = 1.82e5; control promoter light, run 1, well a = 1.67e5; control promoter light, run 1, well b = 2.59e5; uninduced reporter light, run 1, well a = 15845; Outcome = inactive
amon (amontillado) [DRSC16900]: induced reporter light, run 1, well a = 1.38e5; induced reporter light, run 1, well b = 1.37e5; control promoter light, run 1, well a = 1.51e5; control promoter light, run 1, well b = 1.61e5; uninduced reporter light, run 1, well a = 12070; Outcome = inactive
CG17931 + CG42446 [DRSC15293]: induced reporter light, run 1, well a = 2.02e5; induced reporter light, run 1, well b = 2.57e5; control promoter light, run 1, well a = 1.68e5; control promoter light, run 1, well b = 1.81e5; uninduced reporter light, run 1, well a = 16845; Outcome = inactive
Nup62 (Nucleoporin 62kD) [DRSC06970]: induced reporter light, run 1, well a = 68695; induced reporter light, run 1, well b = 73045; control promoter light, run 1, well a = 1.00e5; control promoter light, run 1, well b = 1.02e5; uninduced reporter light, run 1, well a = 4982; Outcome = inactive
sa (spermatocyte arrest) [DRSC11649]: induced reporter light, run 1, well a = 1.38e5; induced reporter light, run 1, well b = 1.05e5; control promoter light, run 1, well a = 1.09e5; control promoter light, run 1, well b = 98165; uninduced reporter light, run 1, well a = 8800; Outcome = inactive
CG14406 [DRSC19592]: induced reporter light, run 1, well a = 82335; induced reporter light, run 1, well b = 92540; control promoter light, run 1, well a = 1.07e5; control promoter light, run 1, well b = 76265; uninduced reporter light, run 1, well a = 12115; Outcome = inactive
CG8093 [DRSC07078]: induced reporter light, run 1, well a = 1.04e5; induced reporter light, run 1, well b = 80100; control promoter light, run 1, well a = 1.22e5; control promoter light, run 1, well b = 1.24e5; uninduced reporter light, run 1, well a = 8665; Outcome = inactive
CG42380 + CG42379 + PIG-M + 1 more [DRSC03884]: induced reporter light, run 1, well a = 62515; induced reporter light, run 1, well b = 70605; control promoter light, run 1, well a = 67145; control promoter light, run 1, well b = 80040; uninduced reporter light, run 1, well a = 6455; Outcome = inactive
CG42380 + CG42379 + PIG-M + 1 more [DRSC04580]: induced reporter light, run 1, well a = 2.30e5; induced reporter light, run 1, well b = 2.59e5; control promoter light, run 1, well a = 1.84e5; control promoter light, run 1, well b = 2.04e5; uninduced reporter light, run 1, well a = 15710; Outcome = inactive
